Data published in PubChem BioAssay AID743317 (Broad Institute, 2014).
Inconclusive means that the source gave no clear call. Such entries were picked first, then a sample of the others. The source made the active and inactive calls.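 The calls were made as follows: active = fitted curve reaches 40% activation at or below the top valid dose, and every replicate test is called active; inconclusive = replicate tests disagree, some active and some inactive; inactive = all replicate tests inactive, including activity in the wrong direction.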

Sequences of proteins named here, by UniProt entry; tags and fusion partners are left off. A change or cut given only in a name is not applied to a line headed by its entry.
UniProt Q9NZ08: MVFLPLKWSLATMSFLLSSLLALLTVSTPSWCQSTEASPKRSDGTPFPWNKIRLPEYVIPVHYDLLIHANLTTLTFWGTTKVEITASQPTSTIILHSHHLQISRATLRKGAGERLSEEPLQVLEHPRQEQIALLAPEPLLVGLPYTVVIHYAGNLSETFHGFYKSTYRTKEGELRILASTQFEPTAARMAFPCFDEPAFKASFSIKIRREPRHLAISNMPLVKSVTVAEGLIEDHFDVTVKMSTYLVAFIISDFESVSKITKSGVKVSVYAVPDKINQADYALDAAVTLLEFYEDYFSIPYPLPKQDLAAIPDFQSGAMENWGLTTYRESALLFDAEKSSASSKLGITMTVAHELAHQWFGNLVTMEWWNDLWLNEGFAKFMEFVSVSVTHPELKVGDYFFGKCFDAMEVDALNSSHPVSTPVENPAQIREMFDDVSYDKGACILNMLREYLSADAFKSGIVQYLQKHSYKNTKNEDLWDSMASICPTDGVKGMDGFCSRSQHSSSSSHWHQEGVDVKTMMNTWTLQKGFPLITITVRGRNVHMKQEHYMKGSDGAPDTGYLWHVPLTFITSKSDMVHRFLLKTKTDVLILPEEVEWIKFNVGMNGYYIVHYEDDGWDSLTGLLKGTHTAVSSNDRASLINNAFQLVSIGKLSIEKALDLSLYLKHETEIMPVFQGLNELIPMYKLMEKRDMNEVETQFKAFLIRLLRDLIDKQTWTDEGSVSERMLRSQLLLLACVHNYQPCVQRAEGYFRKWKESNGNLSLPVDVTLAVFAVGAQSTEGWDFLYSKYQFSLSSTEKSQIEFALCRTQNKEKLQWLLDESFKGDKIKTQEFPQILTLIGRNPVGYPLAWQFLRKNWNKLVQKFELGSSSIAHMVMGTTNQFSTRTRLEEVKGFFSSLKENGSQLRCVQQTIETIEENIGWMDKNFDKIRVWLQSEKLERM

molecular target: Endoplasmic reticulum aminopeptidase 1 (Homo sapiens) (UniProt Q9NZ08); assay: ERAP1 aminopeptidase activity change, dose response, biochemical, fluorescence, cherry-pick (AID 743317); conditions: ERAP1 enzyme, Leu-AMC fluorescence, 60 min; at 11 µM (top of the series) unless noted

Activity increase (activation), inconclusive:
C[C@@H]1CN([C@H](C)CO)C(=O)c2cccc(NS(=O)(=O)c3ccc(Cl)cc3)c2O[C@@H]1CN(C)C(=O)Nc1ccccc1 28.6%
O=C(C[C@@H]1CC[C@@H]2[C@H](COC[C@@H](O)CN2C(=O)Cc2ccccc2)O1)NC1CCC1 36.4%
CN1[C@H](C(=O)NC2CCC2)[C@@H](CO)[C@@H]2Cn3c(ccc(/C=C/c4ccccc4)c3=O)[C@@H]21 -4.1%
C/C=C/c1ccc([C@H]2[C@@H](CO)N(CC3CCOCC3)C23CN(S(=O)(=O)CC)C3)cc1 31.9%
C[C@H](NC(=O)C[C@H]1CC[C@H]2[C@@H](COC[C@H](O)CN2C(=O)Nc2ccccc2)O1)c1ccccc1 46.1%
COc1ccc(S(=O)(=O)NC[C@@H]2CC[C@H]3[C@H](CN3Cc3cc(F)ccc3F)O2)cc1 36.2%
O=C(Cc1ccccn1)N1CC(=O)N2[C@@H](CO)[C@H](c3ccc(C#CC4CCCC4)cc3)[C@@H]2C1 30.6%
CN1c2ccc(-c3ccccc3)cc2[C@H]2[C@H](CCN2C(=O)c2ccccc2)[C@@H]1CO 34.8%
CCCN1[C@@H]2Cn3c(ccc(-c4cccnc4)c3=O)[C@H]1[C@@H](C(=O)NCCc1cn(C)cn1)[C@@H]2CO 36%
CCCN1[C@@H]2c3ccc(/C=C/c4ccccc4)c(=O)n3C[C@H]1[C@H](CO)[C@H]2C(=O)NCc1ccccn1 -57.4%
O=C(NCC1CC1)[C@H]1[C@H](CO)[C@H]2Cn3c(ccc(/C=C/c4ccccc4)c3=O)[C@@H]1N2C(=O)C1CC1 -59.3%
COc1ccc2c3c([nH]c2c1)[C@@H](CO)N(C(C)=O)CC31CN(S(=O)(=O)c2cccs2)C1 25.8%
COCC(=O)N1[C@@H]2c3ccc(/C=C/c4ccccc4)c(=O)n3C[C@H]1[C@H](CO)[C@H]2C(=O)N1CCOCC1 -74.1%
COc1ccc(S(=O)(=O)N(C)C[C@@H]2Oc3ncccc3C(=O)N([C@H](C)CO)C[C@@H]2C)cc1 -59%
CCN1[C@@H]2c3ccc(/C=C/c4ccccc4)c(=O)n3C[C@H]1[C@H](CO)[C@H]2C(=O)N1CCOCC1 -69.4%
CCCN1[C@@H]2Cn3c(ccc(/C=C/c4ccccc4)c3=O)[C@H]1[C@@H](C(=O)NCc1ccccn1)[C@@H]2CO -55.3%
CCCNC(=O)N1C[C@@H](C)[C@@H](OC)CN(C)C(=O)c2cc(NS(=O)(=O)CC(F)(F)F)ccc2OC[C@@H]1C 53.2%
O=C(NCCc1ccncc1)[C@H]1N[C@H]2c3ccc(/C=C/c4ccccc4)c(=O)n3C[C@H]2[C@@H]1CO -12.5%
CCCN1[C@@H]2c3ccc(-c4cccnc4)c(=O)n3C[C@H]1[C@H](CO)[C@H]2C(=O)NCCc1cn(C)cn1 38.1%
COc1ccc2c3c([nH]c2c1)[C@@H](CO)N(Cc1ccccc1OC)CC31CN(C)C1 -22.9%
COc1cccc(S(=O)(=O)N(C)C[C@@H]2Oc3ncccc3C(=O)N([C@H](C)CO)C[C@@H]2C)c1 -47.9%
COc1cccc(CNC(=O)[C@H]2N[C@H]3c4ccc(/C=C/c5ccccc5)c(=O)n4C[C@H]3[C@@H]2CO)c1 -6.57%

Activity increase (activation), inactive:
CN1c2ccc(-c3ccc(C#N)cc3)cc2[C@@H]2[C@@H](CCN2C(=O)CC2CC2)[C@@H]1CO -8.63%
CCN(CC)Cc1c(O)ccc2cc(-c3nc4ccccc4n3C)c(=O)oc12 -105%
Cc1cc(=O)oc2cc(NS(=O)(=O)c3ccc(F)cc3)ccc12 -52%
Cc1cc(=O)oc2c(CN3CCCC3)c(O)ccc12 -44%
CCc1c(C)c2cc(Cl)c(O)c(CN(CC)CC)c2oc1=O -62.3%
Cc1c(-c2ccccc2)c(=O)oc2cc(O)ccc12 -87.3%
O=c1ccc2cc(O)c(O)cc2o1 -53.9%

As a working copy, 3 of the compounds above:
Activity increase (activation), inactive:
CN1c2ccc(-c3ccc(C#N)cc3)cc2[C@@H]2[C@@H](CCN2C(=O)CC2CC2)[C@@H]1CO -8.63%
CCN(CC)Cc1c(O)ccc2cc(-c3nc4ccccc4n3C)c(=O)oc12 -105%
Cc1cc(=O)oc2cc(NS(=O)(=O)c3ccc(F)cc3)ccc12 -52%
